Measurements reported in paper PMC10272166.
These are yes or no findings as the source states them, for the method shown. Binding seen in cells or lysates may run through a third protein. Some binding calls cover weakened binding; strength is not graded here. For part of these data: Sequences can lack the tags named with a protein. Each block holds one binder with its values, some of them ahead of it.

Amino acid sequences for entries named in this document (tags omitted). Residues count along the entry.
UniProt P02768, residues 25-609: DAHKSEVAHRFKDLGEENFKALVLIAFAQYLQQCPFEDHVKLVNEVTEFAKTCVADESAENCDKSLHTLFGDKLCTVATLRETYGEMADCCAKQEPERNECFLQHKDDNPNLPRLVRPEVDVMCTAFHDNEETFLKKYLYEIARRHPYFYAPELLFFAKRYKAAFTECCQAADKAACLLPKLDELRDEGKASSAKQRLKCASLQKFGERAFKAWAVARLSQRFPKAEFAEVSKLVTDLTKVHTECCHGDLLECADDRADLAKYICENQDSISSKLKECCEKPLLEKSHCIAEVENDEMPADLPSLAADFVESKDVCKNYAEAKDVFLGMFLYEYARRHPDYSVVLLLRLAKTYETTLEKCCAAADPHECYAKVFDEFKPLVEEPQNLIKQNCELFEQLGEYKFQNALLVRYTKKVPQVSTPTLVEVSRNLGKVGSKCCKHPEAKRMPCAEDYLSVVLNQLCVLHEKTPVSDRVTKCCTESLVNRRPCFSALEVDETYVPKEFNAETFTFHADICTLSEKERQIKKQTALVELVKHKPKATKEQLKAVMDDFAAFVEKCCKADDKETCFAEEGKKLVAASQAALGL
UniProt P07724, residues 25-608: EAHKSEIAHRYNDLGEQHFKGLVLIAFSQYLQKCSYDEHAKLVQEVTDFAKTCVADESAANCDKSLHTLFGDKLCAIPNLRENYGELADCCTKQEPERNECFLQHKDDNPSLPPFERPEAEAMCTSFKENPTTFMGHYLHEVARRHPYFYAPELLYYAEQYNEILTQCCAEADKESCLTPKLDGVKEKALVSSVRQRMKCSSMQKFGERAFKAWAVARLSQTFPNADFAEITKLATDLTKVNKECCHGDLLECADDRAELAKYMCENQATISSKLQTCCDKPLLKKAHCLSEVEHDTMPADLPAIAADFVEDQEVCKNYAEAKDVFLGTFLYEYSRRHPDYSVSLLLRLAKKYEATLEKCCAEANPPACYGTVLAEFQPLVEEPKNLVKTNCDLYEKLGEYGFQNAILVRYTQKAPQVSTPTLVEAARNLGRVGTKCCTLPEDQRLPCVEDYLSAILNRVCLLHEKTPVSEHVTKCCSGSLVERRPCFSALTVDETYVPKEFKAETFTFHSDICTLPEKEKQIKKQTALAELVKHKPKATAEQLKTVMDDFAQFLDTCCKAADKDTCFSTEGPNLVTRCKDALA

Legend:
[1] = target: albumin (endogenous in HepG2) (human (endogenous in HepG2)) (UniProt P02768); experiment: co-IP; HepG2 lysate (20 mM Tris pH 7.5, 150 mM NaCl, 1% Triton X-100); anti-albumin IgG or isotype control IgG with protein-G agarose, western blot
[2] = target: GFP-Albumin-1-609 (Full length) (human) (UniProt P02768); experiment: co-IP; HEK293T transfected with the indicated vectors, lysate (20 mM Tris pH 7.5, 150 mM NaCl, 1% Triton X-100); anti-GFP nanobody agarose beads, 2 h at 4 °C, western blot; also after treatment of the cells with 17-AAG
[3] = target: albumin (mouse liver, endogenous) (mouse (endogenous in mouse liver)) (UniProt P07724); experiment: co-IP; mouse liver homogenised in RIPA buffer; anti-albumin IgG or isotype control IgG with protein-G agarose, western blot; mice on normal or Western diet; also 8-week- and 10-month-old livers

B2: carnitine palmitoyltransferase 2 (endogenous in HEK293T) (protein, UniProt P23786 26-658)
chain: SAGSGPGQYLQRSIVPTMHYQDSLPRLPIPKLEDTIRRYLSAQKPLLNDGQFRKTEQFCKSFENGIGKELHEQLVALDKQNKHTSYISGPWFDMYLSARDSVVLNFNPFMAFNPDPKSEYNDQLTRATNMTVSAIRFLKTLRAGLLEPEVFHLNPAKSDTITFKRLIRFVPSSLSWYGAYLVNAYPLDMSQYFRLFNSTRLPKPSRDELFTDDKARHLLVLRKGNFYIFDVLDQDGNIVSPSEIQAHLKYILSDSSPAPEFPLAYLTSENRDIWAELRQKLMSSGNEESLRKVDSAVFCLCLDDFPIKDLVHLSHNMLHGDGTNRWFDKSFNLIIAKDGSTAVHFEHSWGDGVAVLRFFNEVFKDSTQTPAVTPQSQPATTDSTVTVQKLNFELTDALKTGITAAKEKFDATMKTLTIDCVQFQRGGKEFLKKQKLSPDAVAQLAFQMAFLRQYGQTVATYESCSTAAFKHGRTETIRPASVYTKRCSEAFVREPSRHSAGELQQMMVECSKYHGQLTKEAAMGQGFDRHLFALRHLAAAKGIILPELYLDPAYGQINHNVLSTSTLSSPAVNLGGFAPVVSDGFGVGYAVHDNWIGCNVSSYPGRNAREFLQCVEKALEDMFDALEGKSIKS
- binding [2]: binds

B3: FLAG-CPT2-26-658 (domain or fragment, UniProt P23786 26-658)
chain: B2 chain
- binding [2]: binds

B4: ACSL1 (in HEK293T) (protein, UniProt P33121 1-698)
chain: MQAHELFRYFRMPELVDFRQYVRTLPTNTLMGFGAFAALTTFWYATRPKPLKPPCDLSMQSVEVAGSGGARRSALLDSDEPLVYFYDDVTTLYEGFQRGIQVSNNGPCLGSRKPDQPYEWLSYKQVAELSECIGSALIQKGFKTAPDQFIGIFAQNRPEWVIIEQGCFAYSMVIVPLYDTLGNEAITYIVNKAELSLVFVDKPEKAKLLLEGVENKLIPGLKIIVVMDAYGSELVERGQRCGVEVTSMKAMEDLGRANRRKPKPPAPEDLAVICFTSGTTGNPKGAMVTHRNIVSDCSAFVKATENTVNPCPDDTLISFLPLAHMFERVVECVMLCHGAKIGFFQGDIRLLMDDLKVLQPTVFPVVPRLLNRMFDRIFGQANTTLKRWLLDFASKRKEAELRSGIIRNNSLWDRLIFHKVQSSLGGRVRLMVTGAAPVSATVLTFLRAALGCQFYEGYGQTECTAGCCLTMPGDWTAGHVGAPMPCNLIKLVDVEEMNYMAAEGEGEVCVKGPNVFQGYLKDPAKTAEALDKDGWLHTGDIGKWLPNGTLKIIDRKKHIFKLAQGEYIAPEKIENIYMRSEPVAQVFVHGESLQAFLIAIVVPDVETLCSWAQKRGFEGSFEELCRNKDVKKAILEDMVRLGKDSGLKPFEQVKGITLHPELFSIDNGLLTPTMKAKRPELRNYFRSQIDDLYSTIKV
- binding [2]: binds

B5: FLAG-CPT2-179-658 (domain or fragment, UniProt P23786 179-658)
chain: NPAKSDTITFKRLIRFVPSSLSWYGAYLVNAYPLDMSQYFRLFNSTRLPKPSRDELFTDDKARHLLVLRKGNFYIFDVLDQDGNIVSPSEIQAHLKYILSDSSPAPEFPLAYLTSENRDIWAELRQKLMSSGNEESLRKVDSAVFCLCLDDFPIKDLVHLSHNMLHGDGTNRWFDKSFNLIIAKDGSTAVHFEHSWGDGVAVLRFFNEVFKDSTQTPAVTPQSQPATTDSTVTVQKLNFELTDALKTGITAAKEKFDATMKTLTIDCVQFQRGGKEFLKKQKLSPDAVAQLAFQMAFLRQYGQTVATYESCSTAAFKHGRTETIRPASVYTKRCSEAFVREPSRHSAGELQQMMVECSKYHGQLTKEAAMGQGFDRHLFALRHLAAAKGIILPELYLDPAYGQINHNVLSTSTLSSPAVNLGGFAPVVSDGFGVGYAVHDNWIGCNVSSYPGRNAREFLQCVEKALEDMFDALEGKSIKS
- binding [2]: binds

The remaining lines, values ahead:

- binding [1]: binds
B1: carnitine palmitoyltransferase 2 (endogenous in HepG2) (protein, UniProt P23786 26-658)
chain: B2 chain

- binding [3]: binds
B6: carnitine palmitoyltransferase 2 (mouse liver, endogenous) (protein, UniProt P52825 26-658)
chain: SAVSGPAEYLQHSIVPTMHYQDSLPRLPIPKLEDTMKRYLSAQKPLLNDSQFRKTEVLCKDFENGIGKELHAHLLAQDKQNKHTSYISGPWFDMYLTARDSVVLNFNPFMAFNPDPKSEYNDQLTRATNLTVSAVRFLKTLRAGLLEPEVFHLNPARSDTDAFKRLIRFVPSSLSWYGAYLVNAYPLDMSQYFRLFNSTRIPKPSRDELFTDTKARHLLVLRKGHFYVFDVLDQDGNIVNPSEIQAHLKYILSDSSPVPEFPLAYLTSENRDVWAELRQKLIHGGNEETLRKVDSAVFCLCLDDFPMKDLVHLSHTMLHGDGTNRWFDKSFNLIVAKDGTAAVHFEHAWGDGVAVLRFFNEVFRDSTQTPAIAPQSQPAATDSSVSVQKLSFKLSSALKAGVTAAKEKFDATMKTLTIDAIQFQRGGKEFLKKKKLSPDAVAQLAFQMAFLRQYGQTVATYESCSTAAFKHGRTETIRPASIFTKRCSEAFVREPSKHSVGELQHMMAECSKYHGQLTKEAAMGQGFDRHLFALRYLAAARGVTLPELYQDPAYQRINHNILSTSTLSSPAVSLGGFAPVVPDGFGIAYAVHDDWIGCNVSSYSGRNAREFLHCVQKCLEDMFDALEGKAIKT
